# Reference: the supplement of paper PMC8728848
# This is one part of the list.
# Legend:
# Assay in all cases: glycan array binding signal (z-score within array); higher = stronger binding
# Settings in all cases: glycan notation: IUPAC condensed, linker removed
# [1] = target: Fuc(a1-2)[GalNAc(a1-3)]Gal(b1-3)GlcNAc(b1-6)GalNAc
# How it was run: (§1)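 The binding signal is a Z-score computed within each array and averaged over linkers. Arrays of the same protein sequence at different concentrations or buffers were also averaged together. Data originate from 3228 arrays in the Consortium for Functional Glycomics database, kept only where the protein sequence was available.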
# [2] = target: Fuc(a1-2)[GalNAc(a1-3)]Gal(b1-4)Glc
# How it was run: as §1
# [3] = target: Fuc(a1-2)[GalNAc(a1-3)]Gal(b1-4)GlcNAc
# How it was run: as §1
# [4] = target: Fuc(a1-2)[GalNAc(a1-3)]Gal(b1-4)GlcNAc(b1-2)Man
# How it was run: as §1
# [5] = target: Fuc(a1-2)[GalNAc(a1-3)]Gal(b1-4)GlcNAc(b1-2)Man(a1-3)[Fuc(a1-2)[GalNAc(a1-3)]Gal(b1-4)GlcNAc(b1-2)Man(a1-6)]Man(b1-4)GlcNAc(b1-4)GlcNAc
# How it was run: as §1
# [6] = target: Fuc(a1-2)[GalNAc(a1-3)]Gal(b1-4)GlcNAc(b1-2)Man(a1-3)[Fuc(a1-2)[GalNAc(a1-3)]Gal(b1-4)GlcNAc(b1-2)Man(a1-6)]Man(b1-4)GlcNAc(b1-4)[Fuc(a1-6)]GlcNAc
# How it was run: as §1
# [7] = target: Fuc(a1-2)[GalNAc(a1-3)]Gal(b1-4)GlcNAc(b1-3)Gal(b1-4)GlcNAc
# How it was run: as §1
# [8] = target: Fuc(a1-2)[GalNAc(a1-3)]Gal(b1-4)GlcNAc(b1-3)Gal(b1-4)GlcNAc(b1-3)Gal(b1-4)GlcNAc
# How it was run: as §1
# [9] = target: Fuc(a1-2)[GalNAc(a1-3)]Gal(b1-4)GlcNAc(b1-3)GalNAc
# How it was run: as §1
# [10] = target: Fuc(a1-2)[GalNAc(a1-3)]Gal(b1-4)GlcNAc(b1-3)[Fuc(a1-2)[GalNAc(a1-3)]Gal(b1-4)GlcNAc(b1-6)]GalNAc
# How it was run: as §1
# [11] = target: Fuc(a1-2)[GalNAc(a1-3)]Gal(b1-4)GlcNAc(b1-6)GalNAc
# How it was run: as §1
# [12] = target: Fuc(a1-2)[GalNAc(a1-3)]Gal(b1-4)[Fuc(a1-3)]GlcNAc
# How it was run: as §1
# [13] = target: Fuc(a1-2)[GalNAc(a1-3)]Gal(b1-4)[Fuc(a1-3)]GlcNAc(b1-3)GalNAc
# How it was run: as §1
# [14] = target: Fuc(a1-2)[GalNAc(a1-4)]Gal(b1-4)GlcNAc
# How it was run: as §1
# [15] = target: Fuc(a1-2)[GalNAc(b1-3)]Gal
# How it was run: as §1
# [16] = target: Fuc(a1-3)GlcNAc
# How it was run: as §1
# [17] = target: Fuc(a1-3)[Gal(b1-4)]Glc6S
# How it was run: as §1
# [18] = target: Fuc(a1-3)[Gal(b1-4)]GlcNAc
# How it was run: as §1
# [19] = target: Fuc(a1-3)[Gal(b1-4)]GlcNAc(b1-2)Man
# How it was run: as §1
# [20] = target: Fuc(a1-3)[Gal(b1-4)]GlcNAc(b1-2)Man(a1-3)[Fuc(a1-3)[Gal(b1-4)]GlcNAc(b1-2)Man(a1-6)]Man(b1-4)GlcNAc(b1-4)GlcNAc
# How it was run: as §1
# [21] = target: Fuc(a1-3)[Gal(b1-4)]GlcNAc(b1-2)Man(a1-3)[Fuc(a1-3)[Gal(b1-4)]GlcNAc(b1-2)Man(a1-6)]Man(b1-4)GlcNAc(b1-4)[Fuc(a1-6)]GlcNAc
# How it was run: as §1
# [22] = target: Fuc(a1-3)[Gal(b1-4)]GlcNAc(b1-3)Gal(b1-3)[Fuc(a1-4)]GlcNAc
# How it was run: as §1
# [23] = target: Fuc(a1-3)[Gal(b1-4)]GlcNAc(b1-3)Gal(b1-4)[Fuc(a1-3)]GlcNAc
# How it was run: as §1
# [24] = target: Fuc(a1-3)[Gal(b1-4)]GlcNAc(b1-3)Gal(b1-4)[Fuc(a1-3)]GlcNAc(b1-3)Gal(b1-4)[Fuc(a1-3)]GlcNAc
# How it was run: as §1
# [25] = target: Fuc(a1-3)[Gal(b1-4)]GlcNAc(b1-3)GalNAc
# How it was run: as §1
# [26] = target: Fuc(a1-3)[Gal(b1-4)]GlcNAc(b1-6)GalNAc
# How it was run: as §1
# [27] = target: Fuc(a1-3)[Gal(b1-4)]GlcNAc(b1-6)[Gal(b1-3)GlcNAc(b1-3)]Gal(b1-4)Glc
# How it was run: as §1
# [28] = target: Fuc(a1-3)[Gal(b1-4)]GlcNAc6S
# How it was run: as §1
# [29] = target: Fuc(a1-3)[Gal3S(b1-4)]Glc
# How it was run: as §1
# [30] = target: Fuc(a1-3)[Gal3S(b1-4)]GlcNAc
# How it was run: as §1
# [31] = target: Fuc(a1-3)[Gal3S(b1-4)]GlcNAc6S
# How it was run: as §1
# [32] = target: Fuc(a1-3)[GalNAc(b1-4)]GlcNAc
# How it was run: as §1
# [33] = target: Fuc(a1-3)[GalNAc(b1-4)]GlcNAc6S
# How it was run: as §1
# [34] = target: Fuc(a1-4)GlcNAc
# How it was run: as §1
# [35] = target: Fuc(b1-3)GlcNAc
# How it was run: as §1
# [36] = target: Gal(a1-2)Gal
# How it was run: as §1
# [37] = target: Gal(a1-3)Gal
# How it was run: as §1
binder,measurement,setting,value
Loc1 (Escherichia coli) (protein) APCALTNVGEQRGTYILKPLSMKGNLTAEKIENTGNIIECTDLQETTNAIKVHFLTQNALKFKVGSRHYIINFPFEYDGKKIELPGKSSYNLEEMLSAINFTIPYSIASVSDSSNTADIFPGTPFPLLFEIEVSSCTGNNTNCNSVRFNYNLNTILQVNLMTHHHHHH,glycan array binding signal (z-score),[1],-0.51
same,glycan array binding signal (z-score),[2],-0.07
same,glycan array binding signal (z-score),[3],-0.267
same,glycan array binding signal (z-score),[4],-0.354
same,glycan array binding signal (z-score),[5],0.273
same,glycan array binding signal (z-score),[6],0.012
same,glycan array binding signal (z-score),[7],-0.467
same,glycan array binding signal (z-score),[8],-0.079
same,glycan array binding signal (z-score),[9],-0.086
same,glycan array binding signal (z-score),[10],-0.761
same,glycan array binding signal (z-score),[11],0.466
same,glycan array binding signal (z-score),[12],0.143
same,glycan array binding signal (z-score),[13],-0.744
same,glycan array binding signal (z-score),[14],-0.024
same,glycan array binding signal (z-score),[15],-0.046
same,glycan array binding signal (z-score),[16],0.44
same,glycan array binding signal (z-score),[17],-0.016
same,glycan array binding signal (z-score),[18],0.591
same,glycan array binding signal (z-score),[19],-0.421
same,glycan array binding signal (z-score),[20],-0.255
same,glycan array binding signal (z-score),[21],-0.913
same,glycan array binding signal (z-score),[22],-0.366
same,glycan array binding signal (z-score),[23],-0.859
same,glycan array binding signal (z-score),[24],1.73
same,glycan array binding signal (z-score),[25],-0.41
same,glycan array binding signal (z-score),[26],3.45
same,glycan array binding signal (z-score),[27],-0.496
same,glycan array binding signal (z-score),[28],-0.349
same,glycan array binding signal (z-score),[29],0.786
same,glycan array binding signal (z-score),[30],-0.33
same,glycan array binding signal (z-score),[31],0.108
same,glycan array binding signal (z-score),[32],0.823
same,glycan array binding signal (z-score),[33],-0.614
same,glycan array binding signal (z-score),[34],-0.526
same,glycan array binding signal (z-score),[35],-0.529
same,glycan array binding signal (z-score),[36],-1.11
same,glycan array binding signal (z-score),[37],0.191

# A portion from further up:
binder,measurement,setting,value
Loc1 (Escherichia coli) (protein) APCALTNVGEQRGTYILKPLSMKGNLTAEKIENTGNIIECTDLQETTNAIKVHFLTQNALKFKVGSRHYIINFPFEYDGKKIELPGKSSYNLEEMLSAINFTIPYSIASVSDSSNTADIFPGTPFPLLFEIEVSSCTGNNTNCNSVRFNYNLNTILQVNLMTHHHHHH,glycan array binding signal (z-score),[23],-0.859
same,glycan array binding signal (z-score),[24],1.73
same,glycan array binding signal (z-score),[25],-0.41
